Measurements: paper PMC10576099, “Endothelial discoidin domain receptor 1 senses flow to modulate YAP activation” (Nature Communications, 2023)
These are yes or no findings as the source states them, for the method shown. Binding seen in cells or lysates may run through a third protein. These calls come from enrichment with a bait or labelling near it, and not all partners need be listed. For some of these results: No binding means not detected with the bait.

By UniProt entry, the sequences of proteins in these tests, tags left out. Residues count along the entry.
UniProt Q08345, residues 19-913: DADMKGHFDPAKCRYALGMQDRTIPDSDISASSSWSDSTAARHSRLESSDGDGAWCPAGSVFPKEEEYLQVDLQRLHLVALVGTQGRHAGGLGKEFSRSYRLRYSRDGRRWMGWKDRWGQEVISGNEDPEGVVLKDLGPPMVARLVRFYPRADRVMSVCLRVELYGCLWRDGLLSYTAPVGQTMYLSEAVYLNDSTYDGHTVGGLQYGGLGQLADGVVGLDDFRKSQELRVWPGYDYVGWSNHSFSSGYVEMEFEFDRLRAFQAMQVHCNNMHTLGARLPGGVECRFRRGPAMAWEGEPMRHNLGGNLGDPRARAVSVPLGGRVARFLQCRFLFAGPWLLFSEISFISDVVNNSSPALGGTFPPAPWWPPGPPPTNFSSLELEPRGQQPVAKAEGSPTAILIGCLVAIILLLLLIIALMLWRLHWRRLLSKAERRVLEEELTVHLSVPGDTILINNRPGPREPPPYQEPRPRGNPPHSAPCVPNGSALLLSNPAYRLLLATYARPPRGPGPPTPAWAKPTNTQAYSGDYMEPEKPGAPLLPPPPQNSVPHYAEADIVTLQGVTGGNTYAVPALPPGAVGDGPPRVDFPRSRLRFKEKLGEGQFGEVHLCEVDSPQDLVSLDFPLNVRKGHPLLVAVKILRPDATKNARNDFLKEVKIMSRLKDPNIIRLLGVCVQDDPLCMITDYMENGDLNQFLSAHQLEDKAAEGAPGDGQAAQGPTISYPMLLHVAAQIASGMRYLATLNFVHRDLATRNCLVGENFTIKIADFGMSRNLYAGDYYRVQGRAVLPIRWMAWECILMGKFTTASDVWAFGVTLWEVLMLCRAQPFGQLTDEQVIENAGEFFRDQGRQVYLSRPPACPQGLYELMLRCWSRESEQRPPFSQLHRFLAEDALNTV
UniProt P04792: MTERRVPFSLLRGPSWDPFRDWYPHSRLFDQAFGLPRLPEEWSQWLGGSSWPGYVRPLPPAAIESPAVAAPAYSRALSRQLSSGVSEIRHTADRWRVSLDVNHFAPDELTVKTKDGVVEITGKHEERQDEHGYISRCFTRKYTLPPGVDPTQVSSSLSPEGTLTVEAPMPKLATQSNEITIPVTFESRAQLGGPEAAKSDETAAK
UniProt P62258: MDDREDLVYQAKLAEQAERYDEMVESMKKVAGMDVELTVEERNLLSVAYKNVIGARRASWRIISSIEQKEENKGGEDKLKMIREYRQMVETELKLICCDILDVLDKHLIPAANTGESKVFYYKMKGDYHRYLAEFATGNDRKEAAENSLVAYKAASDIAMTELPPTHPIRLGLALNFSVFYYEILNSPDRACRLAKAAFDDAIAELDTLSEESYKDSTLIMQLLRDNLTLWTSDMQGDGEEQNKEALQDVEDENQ

Columns and labels:
[1] = target: discoidin domain receptor 1 (DDR1), endogenous in HUVECs (human (endogenous in HUVECs)) (UniProt Q08345); assay: affinity purification with mass spectrometry; HUVEC lysates (static, PS or OS for 3 h), anti-DDR1 monoclonal antibody (Santa Cruz sc-374618), SDS-PAGE, mass spectrometry
[2] = target: discoidin domain receptor 1 (DDR1), endogenous in HUVECs (human (endogenous in HUVECs)) (UniProt Q08345); assay: affinity purification with mass spectrometry; as a5, samples from HUVECs in OS or static culture only

In the case of “HSPB1, endogenous in HUVECs (from UniProt P04792 1-205)”, the binding [1] is reported as “binds”.

“YWHAE (14-3-3ε), endogenous in HUVECs (from UniProt P62258 1-255)” was tested, and the binding [1] was “binds”.

B1: YWHAQ, endogenous in HUVECs (protein, UniProt P27348 1-245)
chain: MEKTELIQKAKLAEQAERYDDMATCMKAVTEQGAELSNEERNLLSVAYKNVVGGRRSAWRVISSIEQKTDTSDKKLQLIKDYREKVESELRSICTTVLELLDKYLIANATNPESKVFYLKMKGDYFRYLAEVACGDDRKQTIDNSQGAYQEAFDISKKEMQPTHPIRLGLALNFSVFYYEILNNPELACTLAKTAFDEAIAELDTLNEDSYKDSTLIMQLLRDNLTLWTSDSAGEECDAAEGAEN
In the case of B1, the binding [1] is reported as “binds” and the binding [2] is reported as “no binding (only HUVECs in OS or static culture)”.
